Assay results as given in PMC10720265.
These are yes or no findings as the source states them, for the method shown. In cells and extracts the contact can be indirect. Some entries that bind do so weakly or less than the wild type. Tags and fused reporters may be left off the sequences shown.

T1: MYC-tagged ZC3H18^WT (human), Q86VM9
T1 chain: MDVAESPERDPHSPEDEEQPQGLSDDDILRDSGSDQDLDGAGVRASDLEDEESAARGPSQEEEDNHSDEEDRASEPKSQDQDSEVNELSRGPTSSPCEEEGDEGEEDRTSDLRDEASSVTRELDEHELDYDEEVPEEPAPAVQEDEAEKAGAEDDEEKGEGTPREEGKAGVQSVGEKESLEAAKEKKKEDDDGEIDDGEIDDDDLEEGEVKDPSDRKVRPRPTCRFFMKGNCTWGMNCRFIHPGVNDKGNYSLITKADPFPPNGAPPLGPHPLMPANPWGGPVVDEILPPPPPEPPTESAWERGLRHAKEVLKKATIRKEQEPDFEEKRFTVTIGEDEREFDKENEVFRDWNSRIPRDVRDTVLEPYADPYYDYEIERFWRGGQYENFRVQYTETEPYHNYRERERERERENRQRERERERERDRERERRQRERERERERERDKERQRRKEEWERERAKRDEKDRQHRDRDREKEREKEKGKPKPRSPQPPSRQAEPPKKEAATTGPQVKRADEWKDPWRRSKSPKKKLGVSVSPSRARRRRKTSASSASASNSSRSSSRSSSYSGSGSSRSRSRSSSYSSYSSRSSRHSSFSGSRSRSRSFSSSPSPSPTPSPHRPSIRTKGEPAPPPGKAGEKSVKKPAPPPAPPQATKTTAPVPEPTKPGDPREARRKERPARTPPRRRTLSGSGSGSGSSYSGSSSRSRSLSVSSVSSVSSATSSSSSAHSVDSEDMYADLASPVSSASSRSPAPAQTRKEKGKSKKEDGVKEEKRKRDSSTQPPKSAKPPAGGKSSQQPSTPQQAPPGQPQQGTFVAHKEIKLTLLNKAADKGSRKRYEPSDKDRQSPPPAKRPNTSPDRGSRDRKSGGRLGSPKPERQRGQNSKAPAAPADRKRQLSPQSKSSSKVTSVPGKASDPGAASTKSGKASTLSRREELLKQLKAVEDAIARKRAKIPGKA

T2: MYC-tagged ZC3H18^WT (human) (UniProt Q86VM9)
T2 sequence: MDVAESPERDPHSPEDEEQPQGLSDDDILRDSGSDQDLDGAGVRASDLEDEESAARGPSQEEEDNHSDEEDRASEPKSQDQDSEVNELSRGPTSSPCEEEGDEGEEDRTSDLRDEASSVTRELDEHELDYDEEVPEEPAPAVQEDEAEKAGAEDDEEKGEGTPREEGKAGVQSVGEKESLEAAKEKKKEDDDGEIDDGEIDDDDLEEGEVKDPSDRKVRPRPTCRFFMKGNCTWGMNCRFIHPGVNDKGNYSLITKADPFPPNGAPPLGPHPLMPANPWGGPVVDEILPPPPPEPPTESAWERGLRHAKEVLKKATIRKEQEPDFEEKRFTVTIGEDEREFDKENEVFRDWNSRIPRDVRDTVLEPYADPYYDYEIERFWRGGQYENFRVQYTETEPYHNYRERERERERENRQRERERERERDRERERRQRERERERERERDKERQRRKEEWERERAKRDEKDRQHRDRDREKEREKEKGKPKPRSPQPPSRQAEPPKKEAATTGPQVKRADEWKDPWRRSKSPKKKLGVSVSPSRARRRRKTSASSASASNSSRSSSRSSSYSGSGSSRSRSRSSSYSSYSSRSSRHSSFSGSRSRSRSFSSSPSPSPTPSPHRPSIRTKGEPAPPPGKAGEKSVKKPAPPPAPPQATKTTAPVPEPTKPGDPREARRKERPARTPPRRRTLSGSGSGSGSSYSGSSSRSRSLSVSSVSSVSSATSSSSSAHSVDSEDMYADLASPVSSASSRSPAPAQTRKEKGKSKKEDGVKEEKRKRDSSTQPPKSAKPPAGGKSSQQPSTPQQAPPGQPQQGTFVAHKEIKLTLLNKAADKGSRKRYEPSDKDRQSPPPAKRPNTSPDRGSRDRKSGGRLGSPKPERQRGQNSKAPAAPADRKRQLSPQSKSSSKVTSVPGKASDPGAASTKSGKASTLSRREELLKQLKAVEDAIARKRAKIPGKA


How the values were obtained:
[1] = molecular target: T1, MYC-tagged ZC3H18^WT (human), Q86VM9; assay: co-IP; MYC IP of MYC-tagged ZC3H18^WT or ZC3H18^MUT from HeLa lysates, untagged cells as control; western blot for ARS2, NCBP2, ZCCHC8, MTR4; settings: remark: other sources report otherwise
[2] = molecular target: T2, MYC-tagged ZC3H18^WT (human); assay: as above

binding [1] | binding [2] | Binder
binds |  | NCBP2, CBC component, endogenous in HeLa cells, P52298 1-156 (protein) MSGGLLKALRSDSYVELSQYRDQHFRGDNEEQEKLLKKSCTLYVGNLSFYTTEEQIYELFSKSGDIKKIIMGLDKMKKTACGFCFVEYYSRADAENAMRYINGTRLDDRIIRTDWDAGFKEGRQYGRGRSGGQVRDEYRQDYDAGRGGYGKLAQNQ
 | binds | ZCCHC8, endogenous in HeLa cells (protein, UniProt Q6NZY4 1-707) MAAEVYFGDLELFEPFDHPEESIPKPVHTRFKDDDGDEEDENGVGDAELRERLRQCEETIEQLRAENQELKRKLNILTRPSGILVNDTKLDGPILQILFMNNAISKQYHQEIEEFVSNLVKRFEEQQKNDVEKTSFNLLPQPSSIVLEEDHKVEESCAIKNNKEAFSVVGSVLYFTNFCLDKLGQPLLNENPQLSEGWEIPKYHQVFSHIVSLEGQEIQVKAKRPKPHCFNCGSEEHQMKDCPMPRNAARISEKRKEYMDACGEANNQNFQQRYHAEEVEERFGRFKPGVISEELQDALGVTDKSLPPFIYRMRQLGYPPGWLKEAELENSGLALYDGKDGTDGETEVGEIQQNKSVTYDLSKLVNYPGFNISTPRGIPDEWRIFGSIPMQACQQKDVFANYLTSNFQAPGVKSGNKRSSSHSSPGSPKKQKNESNSAGSPADMELDSDMEVPHGSQSSESFQFQPPLPPDTPPLPRGTPPPVFTPPLPKGTPPLTPSDSPQTRTASGAVDEDALTLEELEEQQRRIWAALEQAESVNSDSDVPVDTPLTGNSVASSPCPNELDLPVPEGKTSEKQTLDEPEVPEIFTKKSEAGHASSPDSEVTSLCQKEKAELAPVNTEGALLDNGSVVPNCDISNGGSQKLFPADTSPSTATKIHSPIPDMSKFATGITPFEFENMAESTGMYLRIRSLLKNSPRNQQKNKKASE
